# Literature values as cited in patent US8636983B2, “Aminoglycoside and fosfomycin combination for treatment of ventilator associated pneumonia (VAP) and ventilator associated tracheal (VAT) bronchitis” (priority 2011, dated 2014).
# For at least one compound, name, drawing or mass did not settle the structure.
# Conditions: cited from earlier work
smiles,measurement,value
NCC[C@H](O)C(=O)N[C@@H]1C[C@H](N)[C@@H](O[C@H]2O[C@H](CN)[C@@H](O)[C@H](O)[C@H]2O)[C@H](O)[C@H]1O[C@H]1O[C@H](CO)[C@@H](O)[C@H](N)[C@H]1O.O=S(=O)(O)O.O=S(=O)(O)O [amikacin sulfate],starting pH,3.5-5.5
